Source: publication PMC8363623

Amino acid sequences for entries named in this document (tags omitted). A change or cut given only in a name is not applied to a line headed by its entry.
UniProt Q12066: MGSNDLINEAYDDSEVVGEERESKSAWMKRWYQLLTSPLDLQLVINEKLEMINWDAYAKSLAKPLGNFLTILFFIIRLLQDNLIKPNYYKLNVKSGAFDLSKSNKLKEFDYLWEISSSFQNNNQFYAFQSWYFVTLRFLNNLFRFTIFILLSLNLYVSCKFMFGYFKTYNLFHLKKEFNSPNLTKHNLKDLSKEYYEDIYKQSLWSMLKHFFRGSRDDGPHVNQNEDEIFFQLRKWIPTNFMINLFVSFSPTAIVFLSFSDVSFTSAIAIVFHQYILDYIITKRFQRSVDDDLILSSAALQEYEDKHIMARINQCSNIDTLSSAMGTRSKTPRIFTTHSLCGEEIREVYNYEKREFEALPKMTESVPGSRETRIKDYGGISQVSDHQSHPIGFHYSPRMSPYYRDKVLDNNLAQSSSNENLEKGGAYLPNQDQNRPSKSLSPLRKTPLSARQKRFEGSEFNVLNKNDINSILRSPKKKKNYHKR

Tests used:
[1] = target: GFP-tagged SUMO^Q95P (S. cerevisiae) [SUMO: Q12306]; experiment: co-IP; yeast cell lysates (50 mM Tris pH 7.5, 150 mM NaCl, 10% glycerol, 1 mM EDTA, 0.5% NP-40) on antiHA-sepharose, GFP-Trap or IgG-agarose beads, 1.5 h at 4 °C, immunoblot; cells also with cdc14-3 at 37 °C, phosphatase inhibitors, Net1 depletion, nur1Pmim, SUMO overexpression (WT, FAIA, KRall), Cdc48 mutants, STUbL deletions or I-PpoI rDNA damage
[2] = target: Nur1 C (C-terminal Nur1 region, two-hybrid fusion) (S. cerevisiae) (UniProt Q12066); experiment: two-hybrid; Gal4 AD (pGADT7) and BD (pGBKT7) fusions in PJ69a, or Y187 mated with Y2HGold; spotting on -LW and on -LWH, -LWH + 1 mM 3-aminotriazol, -LWHA, 3 days unless indicated

| binding [2] | Binder | binding [1] |
| --- | --- | --- |
|  | Slx5 (protein, UniProt P32828 1-619) MHSDTNGRTKSNNSPSDNNPNETVILIDSDKEEDASIREANLPVRLYPDRRVGRRRDALNRFVRSDSRSRNSQRTHITASSERPDFQANNDDITIIREVGRFFGDDGPIDPSAHYVDLDQEPGSETLETPRTIQVDNTNGYLNDNGNNNESDDGLTIVEERTTRPRVTLNLPGGERLEVTATTTDIPIRRSFEFQEDLGASRRQLLRRSATRARNLFVDRSDENDEDWTDDTHNLPEAIQRARRESRMRMSRRIAERQRRVQQQRVSSDENISTSIRLQSIRERIQSYTPDIRSAFHRAESLHEFRSILQNVAPITLQECEEELMALFTEFRNQLLQNWAIDRVRNTQEEALRLHREALERQERTAGRVFHRGTLRESITNYLNFNGEDGFLSRLWSGPALSDADEERHTQNIIDMIQEREERERDVVMKNLMNKTRAQQEEFEARAASLPEGYSASFDTTPKMKLDITKNGKEETIIVTDDDLAKTLEDIPVCCLCGAELGVGIPDDFTGISQKDRGVSFEGLVSKYKFHCPYQTLARPSMLDRDLSKRTFIASCGHAFCGRCFARIDNAKKKSKMPKKKLAQLKGSAHPDNYGPKLCPADSCKKLIRSRGRLKEVYF | binds |
| binds | Cdc14 (two-hybrid fusion) (enzyme, UniProt Q00684 1-551) MRRSVYLDNTIEFLRGRVYLGAYDYTPEDTDELVFFTVEDAIFYNSFHLDFGPMNIGHLYRFAVIFHEILNDPENANKAVVFYSSASTRQRANAACMLCCYMILVQAWTPHQVLQPLAQVDPPFMPFRDAGYSNADFEITIQDVVYGVWRAKEKGLIDLHSFNLESYEKYEHVEFGDFNVLTPDFIAFASPQEDHPKGYLATKSSHLNQPFKSVLNFFANNNVQLVVRLNSHLYNKKHFEDIGIQHLDLIFEDGTCPDLSIVKNFVGAAETIIKRGGKIAVHCKAGLGRTGCLIGAHLIYTYGFTANECIGFLRFIRPGMVVGPQQHWLYLHQNDFREWKYTTRISLKPSEAIGGLYPLISLEEYRLQKKKLKDDKRVAQNNIEGELRDLTMTPPSNGHGALSARNSSQPSTANNGSNSFKSSAVPQTSPGQPRKGQNGSNTIEDINNNRNPTSHANRKVVIESNNSDDESMQDTNGTSNHYPKVSRKKNDISSASSSRMEDNEPSATNINNAADDTILRQLLPKNRRVTSGRRTTSAAGGIRKISGSIKK |  |

Results are given in words; binding and its absence hold for the method and conditions named. A result given as binding can be weak or reduced; the word gives no strength. For some assays here: Sequences can lack the tags named with a protein. For some assays here: Binding seen in cells or lysates may run through a third protein.
